In patent US4736067A, “New dimethyl derivatives of 3-nitro-4-aminoaniline, process for their preparation and their use for dyeing keratinic fibers” (L'Oreal, priority 1983, dated 1988):
Some compounds share one wording; it may come from a single statement.

experiment: Resistance of dye / hair colouring to washing, light, weathering

Row | SMILES | resistance to washing and to light
1 | Cc1cc(N)c([N+](=O)[O-])c(C)c1N [2,6-dimethyl-3-nitroparaphenylenediamine] | resistant to washing and to light
2 | CNc1c(C)cc(N)c([N+](=O)[O-])c1C [4-amino-2,6-dimethyl-3-nitro-N-methylaniline] | resistant to washing and to light
3 | CCN(CC)CCNc1cc([N+](=O)[O-])c(N)c(C)c1C [4-amino-5,6-dimethyl-3-nitro-N-(β-diethylaminoethyl)aniline] | resistant to washing and to light
4 | Cc1c(NCC(O)CO)cc([N+](=O)[O-])c(N)c1C (stereo not drawn) [4-amino-5,6-dimethyl-3-nitro-N-β,γ-dihydroxypropylaniline] | resistant to washing and to light
5 | Cc1c(NCCN)cc([N+](=O)[O-])c(N)c1C [4-amino-5,6-dimethyl-3-nitro-N-β-aminoethylaniline] | resistant to washing and to light
6 | Cc1c(NCCO)cc([N+](=O)[O-])c(N)c1C [4-amino-5,6-dimethyl-3-nitro-N-β-hydroxyethylaniline] | resistant to washing and to light
7 | Cc1c(N)cc([N+](=O)[O-])c(N)c1C [5,6-dimethyl-3-nitroparaphenylenediamine] | resistant to washing and to light
